# Assay results as given in the supplement of paper PMC6411743.
# ± gives the standard deviation of the averaged measurements. The list shows a part of the results, in another mix than the full data.
# Legend:
# Test in all cases: NP40-soluble protein abundance relative to vehicle (solubility fold change) (ratio); higher = more soluble protein in presence of AMP-PNP
# [1] = target: T1, UniProt O43310 and related entries
# T1 sequence (whole entry): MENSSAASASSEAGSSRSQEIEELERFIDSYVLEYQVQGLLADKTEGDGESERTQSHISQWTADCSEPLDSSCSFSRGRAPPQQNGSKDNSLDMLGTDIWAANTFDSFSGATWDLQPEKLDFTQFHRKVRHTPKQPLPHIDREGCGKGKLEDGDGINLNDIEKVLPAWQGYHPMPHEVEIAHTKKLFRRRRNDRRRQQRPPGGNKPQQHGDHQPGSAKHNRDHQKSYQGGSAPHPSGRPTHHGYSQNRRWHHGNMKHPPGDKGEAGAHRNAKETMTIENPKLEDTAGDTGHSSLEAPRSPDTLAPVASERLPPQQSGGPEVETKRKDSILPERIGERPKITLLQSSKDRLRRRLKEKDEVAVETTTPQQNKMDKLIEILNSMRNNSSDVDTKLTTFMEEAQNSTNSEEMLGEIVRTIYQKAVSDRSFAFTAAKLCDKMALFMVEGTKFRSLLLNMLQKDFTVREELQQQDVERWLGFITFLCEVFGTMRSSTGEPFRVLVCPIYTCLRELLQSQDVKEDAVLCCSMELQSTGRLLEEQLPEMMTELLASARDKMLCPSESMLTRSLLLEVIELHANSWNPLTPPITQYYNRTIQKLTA
# Method in brief: (§1)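 Data come from three independent experiments in which Dounce-homogenised Jurkat crude lysate was treated at eight concentrations from 0.1 to 10 mM. Treatment ran 10 min at room temperature and then 3 min at 37 °C, after which 0.8% NP40 and benzonase were added for 60 min at 4 °C before ultracentrifugation. The supernatant underwent TMT labelling and LC-MS/MS, and vsn-normalised intensities were expressed as fold change against the detergent-processed vehicle in each replicate.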
# UniProt O43318-2|O43318 = target: T2, UniProt O43318-2|O43318
# T2 sequence (whole entry): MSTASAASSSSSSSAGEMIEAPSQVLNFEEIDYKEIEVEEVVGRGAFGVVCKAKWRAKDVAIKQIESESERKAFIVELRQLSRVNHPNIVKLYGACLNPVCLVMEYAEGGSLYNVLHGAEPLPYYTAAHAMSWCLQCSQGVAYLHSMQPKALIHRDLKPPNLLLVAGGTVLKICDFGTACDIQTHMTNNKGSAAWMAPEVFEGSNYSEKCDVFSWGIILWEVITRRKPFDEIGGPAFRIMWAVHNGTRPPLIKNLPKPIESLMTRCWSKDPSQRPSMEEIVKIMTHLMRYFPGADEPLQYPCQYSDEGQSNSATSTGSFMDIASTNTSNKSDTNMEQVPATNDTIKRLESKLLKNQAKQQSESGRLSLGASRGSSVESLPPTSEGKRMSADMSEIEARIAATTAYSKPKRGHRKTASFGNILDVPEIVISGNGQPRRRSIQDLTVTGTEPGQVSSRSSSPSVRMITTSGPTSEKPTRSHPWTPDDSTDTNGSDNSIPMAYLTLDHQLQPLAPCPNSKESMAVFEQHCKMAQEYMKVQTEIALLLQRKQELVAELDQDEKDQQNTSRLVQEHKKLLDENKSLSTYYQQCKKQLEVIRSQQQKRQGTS
# Method in brief: as §1
# [2] = target: T3, UniProt O43402 and related entries
# T3 sequence (whole entry): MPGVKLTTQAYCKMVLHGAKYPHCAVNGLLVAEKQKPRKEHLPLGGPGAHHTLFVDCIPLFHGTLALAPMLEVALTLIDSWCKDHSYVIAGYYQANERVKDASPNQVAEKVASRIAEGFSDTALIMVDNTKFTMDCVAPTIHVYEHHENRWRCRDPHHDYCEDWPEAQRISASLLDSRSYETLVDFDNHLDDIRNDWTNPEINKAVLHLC
# Method in brief: as §1
# [3] = target: T4, UniProt O43861 and related entries
# T4 sequence (whole entry): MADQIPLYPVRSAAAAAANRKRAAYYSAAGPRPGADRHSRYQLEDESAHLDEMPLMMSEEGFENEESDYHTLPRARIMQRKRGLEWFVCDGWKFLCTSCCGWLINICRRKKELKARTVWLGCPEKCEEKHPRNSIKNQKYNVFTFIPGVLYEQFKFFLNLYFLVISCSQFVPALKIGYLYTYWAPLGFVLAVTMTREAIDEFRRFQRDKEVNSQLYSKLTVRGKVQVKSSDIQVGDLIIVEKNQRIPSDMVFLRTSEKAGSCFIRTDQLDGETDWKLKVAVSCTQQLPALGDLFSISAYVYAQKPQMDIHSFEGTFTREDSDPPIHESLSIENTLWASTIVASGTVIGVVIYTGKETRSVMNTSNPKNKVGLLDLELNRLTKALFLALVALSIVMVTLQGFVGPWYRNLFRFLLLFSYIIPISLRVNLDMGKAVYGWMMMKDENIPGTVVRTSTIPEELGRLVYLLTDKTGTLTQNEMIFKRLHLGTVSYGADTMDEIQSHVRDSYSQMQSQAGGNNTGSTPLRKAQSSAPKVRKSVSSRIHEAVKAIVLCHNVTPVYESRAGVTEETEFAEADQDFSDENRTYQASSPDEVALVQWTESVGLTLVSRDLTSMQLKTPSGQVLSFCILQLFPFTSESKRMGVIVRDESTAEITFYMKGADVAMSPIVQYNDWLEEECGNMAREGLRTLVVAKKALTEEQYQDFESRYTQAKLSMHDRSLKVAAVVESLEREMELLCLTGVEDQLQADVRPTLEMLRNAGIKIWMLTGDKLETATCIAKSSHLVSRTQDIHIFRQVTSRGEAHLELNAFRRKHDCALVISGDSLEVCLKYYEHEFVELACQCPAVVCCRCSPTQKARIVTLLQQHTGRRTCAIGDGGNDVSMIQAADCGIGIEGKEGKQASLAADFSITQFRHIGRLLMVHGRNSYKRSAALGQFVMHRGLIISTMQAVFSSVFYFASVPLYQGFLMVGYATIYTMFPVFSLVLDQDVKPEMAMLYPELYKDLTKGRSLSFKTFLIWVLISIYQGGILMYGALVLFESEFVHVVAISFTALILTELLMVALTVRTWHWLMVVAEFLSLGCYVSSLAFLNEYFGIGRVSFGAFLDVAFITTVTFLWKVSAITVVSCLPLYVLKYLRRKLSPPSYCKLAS
# Method in brief: as §1
# ZW10 = target: T5, ZW10 (UniProt O43264)
# T5 sequence (whole entry): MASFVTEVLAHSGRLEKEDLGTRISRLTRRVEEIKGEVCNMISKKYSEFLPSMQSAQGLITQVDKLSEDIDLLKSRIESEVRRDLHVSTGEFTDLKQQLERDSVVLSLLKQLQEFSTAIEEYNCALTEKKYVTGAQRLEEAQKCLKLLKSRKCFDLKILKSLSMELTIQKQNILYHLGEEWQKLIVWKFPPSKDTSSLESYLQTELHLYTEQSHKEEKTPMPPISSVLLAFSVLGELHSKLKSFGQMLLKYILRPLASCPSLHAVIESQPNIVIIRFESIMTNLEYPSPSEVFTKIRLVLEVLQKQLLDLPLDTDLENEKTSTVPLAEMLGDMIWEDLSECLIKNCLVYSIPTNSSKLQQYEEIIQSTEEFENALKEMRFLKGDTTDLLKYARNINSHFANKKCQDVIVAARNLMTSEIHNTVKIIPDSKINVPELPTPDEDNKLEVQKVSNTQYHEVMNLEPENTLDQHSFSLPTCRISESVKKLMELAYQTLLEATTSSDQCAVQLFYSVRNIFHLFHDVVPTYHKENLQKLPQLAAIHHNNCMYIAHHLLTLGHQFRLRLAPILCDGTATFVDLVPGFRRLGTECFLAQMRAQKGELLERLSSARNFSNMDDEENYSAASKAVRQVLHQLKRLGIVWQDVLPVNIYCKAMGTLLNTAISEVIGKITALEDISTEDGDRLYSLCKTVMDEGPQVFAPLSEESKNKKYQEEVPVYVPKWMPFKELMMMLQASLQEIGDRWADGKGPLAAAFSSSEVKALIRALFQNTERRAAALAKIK
# Method in brief: as §1
compound,measurement,setting,value
Nc1ncnc2c1ncn2[C@@H]1O[C@H](COP(=O)(O)OP(=O)(O)NP(=O)(O)O)[C@@H](O)[C@H]1O [adenylyl imidodiphosphate],NP40-soluble protein abundance,[1]; concentration: 8mM,1.04 ± 0.035
same,NP40-soluble protein abundance,[1]; concentration: 10mM,1.09 ± 0.055
same,NP40-soluble protein abundance,UniProt O43318-2|O43318; concentration: 1mM,1.01 ± 0.01
same,NP40-soluble protein abundance,UniProt O43318-2|O43318; concentration: 2mM,1.05 ± 0.05
same,NP40-soluble protein abundance,UniProt O43318-2|O43318; concentration: 4mM,1.03 ± 0.029
same,NP40-soluble protein abundance,UniProt O43318-2|O43318; concentration: 6mM,1.01 ± 0.039
same,NP40-soluble protein abundance,UniProt O43318-2|O43318; concentration: 8mM,0.999 ± 0.012
same,NP40-soluble protein abundance,UniProt O43318-2|O43318; concentration: 10mM,0.987 ± 0.013
same,NP40-soluble protein abundance,[2]; concentration: 1mM,1.01 ± 0.026
same,NP40-soluble protein abundance,[2]; concentration: 2mM,0.945 ± 0.031
same,NP40-soluble protein abundance,[2]; concentration: 4mM,0.965 ± 0.041
same,NP40-soluble protein abundance,[2]; concentration: 6mM,0.942 ± 0.019
same,NP40-soluble protein abundance,[2]; concentration: 8mM,0.979 ± 0.037
same,NP40-soluble protein abundance,[2]; concentration: 10mM,0.947 ± 0.048
same,NP40-soluble protein abundance,[3]; concentration: 1mM,1.01 ± 0.022
same,NP40-soluble protein abundance,[3]; concentration: 2mM,1 ± 0.012
same,NP40-soluble protein abundance,[3]; concentration: 4mM,1.01 ± 0.025
same,NP40-soluble protein abundance,[3]; concentration: 6mM,0.986 ± 0.013
same,NP40-soluble protein abundance,[3]; concentration: 8mM,1 ± 0.041
same,NP40-soluble protein abundance,[3]; concentration: 10mM,1.024 ± 0.0049
same,NP40-soluble protein abundance,ZW10; concentration: 1mM,0.994 ± 0.031
same,NP40-soluble protein abundance,ZW10; concentration: 2mM,0.974 ± 0.043
same,NP40-soluble protein abundance,ZW10; concentration: 4mM,0.977 ± 0.047
same,NP40-soluble protein abundance,ZW10; concentration: 6mM,0.936 ± 0.064
same,NP40-soluble protein abundance,ZW10; concentration: 8mM,0.919 ± 0.081
same,NP40-soluble protein abundance,ZW10; concentration: 10mM,0.941 ± 0.07

# For reference, some entries already given.
compound,measurement,setting,value
Nc1ncnc2c1ncn2[C@@H]1O[C@H](COP(=O)(O)OP(=O)(O)NP(=O)(O)O)[C@@H](O)[C@H]1O [adenylyl imidodiphosphate],NP40-soluble protein abundance,[3]; concentration: 1mM,1.01 ± 0.022
same,NP40-soluble protein abundance,[3]; concentration: 2mM,1 ± 0.012
